Data source: PubChem BioAssay AID504808 (Drosophila RNAi Screening Center, 2011)
Aim: 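Fly genes required to hold E2F transcription in check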 (primary screen). System: Drosophila S2 cells. Reagent: long dsRNA against Drosophila genes. Measurement: 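Firefly luciferase driven by E2F sites, normalised to Renilla luciferase on the same minimal promoter, measured by plate reader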. Direction: E2F firefly: higher = more E2F reporter activity; Renilla normaliser: higher = more normaliser reporter signal. Rule for the call: 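a knock-down counted as active when the firefly/Renilla E2F signal rose above 50%, a threshold chosen arbitrarily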.
The screen tested about 21,000 reagents; below is a random part of those that have a named target and a result. In the full data, 18 (0.084%) are marked active. 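Raw counts without plate normalisation, one of two replicates; the ratio scores behind the calls were not deposited.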 Unmarked entries are inactive. Reagents against one gene are numbered here. Names joined by + are all predicted targets of the reagent. Not stated in the record: the amount of reagent, the time to read-out.

no.	target gene	reagent no.	E2F firefly, rep 1	Renilla normaliser, rep 1
1	CG43689	1	62765	3616
2	CG12374	1	1.11e5	4405
3	emb	1	83879	3350
4	CG13502	1	1.00e5	4336
5	CG16989	1	79857	4542
6	CG31693	1	1.14e5	4623
7	CG15529	1	1.03e5	5858
8	b	1	96793	3897
9	fon	1	80118	3309
10	ppk9	1	1.02e5	3808
11	ppk9	2	1.01e5	4648
12	Spred	1	172	34
13	Sox14	1	1.09e5	4619
14	CG14313	1	1.42e5	6187
15	CG17300	1	1.19e5	7167
16	MBD-like	1	1.43e5	7015
17	CG10041	1	1.48e5	6325
18	l(2)k14505	1	77949	3360
19	Gfat2	1	1816	980
20	CG42680	1	1.47e5	5777
21	CG17834	1	69520	3132
22	Syn	1	1.26e5	6524
23	CG13577	1	1.12e5	4830
24	CG42579	1	81093	2595
25	Desat1	1	1.05e5	6958
26	Obp56a	1	1.35e5	5593
27	CG5742	1	77832	3149
28	CG31221	1	1.46e5	7453
29	CG31221	2	1.44e5	6780
30	c12.2	1	1.09e5	6422
31	Arpc2	1	89748	3756
32	dos	1	99573	3414
33	dos	2	99125	4178
34	koi	1	1.53e5	5049
35	CG5388	1	1.27e5	6778
36	CG11317	1	1636	916
37	pr	1	78095	3409
38	Or22c	1	1.70e5	6137
39	Ccdc85	1	1.26e5	4582
40	TpnC25D	1	1.46e5	5720
41	CG34202	1	1.72e5	5699
42	CG17493	1	97841	4465
43	lig	1	3288	64
44	lig	2	1.49e5	5728
45	Rad23	1	1738	888
46	BTBD9	1	56631	4158
47	CG5823	1	53440	3338
48	CG34204	1	1.19e5	4954
49	CG7741	1	94368	4153
50	Cep135	1	1.29e5	3997
51	Cep135	2	70823	3642
52	CG4294	1	73939	3943
53	eIF3e	1	1.15e5	8032
54	cnk	1	1.51e5	5050
55	Coq7 + shf	1	1.29e5	6676
56	CG12609	1	1.35e5	5236
57	His4:CG33883 + His4:CG33889 + His4:CG33899 + 20 more	1	1.14e5	13452

Reformatted: entries from further up
{"target gene": "CG17300", "reagent no.": 1, "E2F firefly, rep 1": 1.19e5, "Renilla normaliser, rep 1": 7167}
{"target gene": "MBD-like", "reagent no.": 1, "E2F firefly, rep 1": 1.43e5, "Renilla normaliser, rep 1": 7015}
{"target gene": "CG10041", "reagent no.": 1, "E2F firefly, rep 1": 1.48e5, "Renilla normaliser, rep 1": 6325}
{"target gene": "l(2)k14505", "reagent no.": 1, "E2F firefly, rep 1": 77949, "Renilla normaliser, rep 1": 3360}
{"target gene": "Gfat2", "reagent no.": 1, "E2F firefly, rep 1": 1816, "Renilla normaliser, rep 1": 980}
{"target gene": "CG42680", "reagent no.": 1, "E2F firefly, rep 1": 1.47e5, "Renilla normaliser, rep 1": 5777}
{"target gene": "CG17834", "reagent no.": 1, "E2F firefly, rep 1": 69520, "Renilla normaliser, rep 1": 3132}
{"target gene": "Syn", "reagent no.": 1, "E2F firefly, rep 1": 1.26e5, "Renilla normaliser, rep 1": 6524}
